These are yes or no findings as the source states them, for the method shown. Binding seen in cells or lysates may run through a third protein. Some binding calls cover weakened binding; strength is not graded here.
Target: neurotrophin receptor tyrosine kinase (NTRK1 or TRKA) (human (endogenous in SH-SY5Y)) (UniProt P04629)
Experiment: co-IP

Amino acid sequences for entries named in this document (tags omitted). Residues count along the entry.
UniProt P04629, residues 33-796: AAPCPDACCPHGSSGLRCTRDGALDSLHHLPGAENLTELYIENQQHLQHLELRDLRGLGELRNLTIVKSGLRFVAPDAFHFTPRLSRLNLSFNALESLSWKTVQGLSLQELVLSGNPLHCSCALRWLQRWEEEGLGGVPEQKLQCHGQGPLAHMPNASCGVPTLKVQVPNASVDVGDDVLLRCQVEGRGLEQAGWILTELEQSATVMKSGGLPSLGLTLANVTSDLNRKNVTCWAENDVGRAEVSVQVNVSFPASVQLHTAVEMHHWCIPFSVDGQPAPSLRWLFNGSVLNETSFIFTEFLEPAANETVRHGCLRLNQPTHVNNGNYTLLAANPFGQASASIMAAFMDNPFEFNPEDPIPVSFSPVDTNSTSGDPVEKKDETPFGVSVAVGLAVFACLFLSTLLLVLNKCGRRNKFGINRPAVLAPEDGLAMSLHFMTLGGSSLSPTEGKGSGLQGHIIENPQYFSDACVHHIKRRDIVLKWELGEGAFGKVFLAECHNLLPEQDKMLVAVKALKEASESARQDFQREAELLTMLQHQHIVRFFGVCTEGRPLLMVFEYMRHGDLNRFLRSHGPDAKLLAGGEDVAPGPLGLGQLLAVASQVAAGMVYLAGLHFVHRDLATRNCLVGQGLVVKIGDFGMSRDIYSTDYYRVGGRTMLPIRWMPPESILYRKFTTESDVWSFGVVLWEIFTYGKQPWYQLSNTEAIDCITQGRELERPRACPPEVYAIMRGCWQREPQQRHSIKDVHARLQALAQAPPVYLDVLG
UniProt P62993: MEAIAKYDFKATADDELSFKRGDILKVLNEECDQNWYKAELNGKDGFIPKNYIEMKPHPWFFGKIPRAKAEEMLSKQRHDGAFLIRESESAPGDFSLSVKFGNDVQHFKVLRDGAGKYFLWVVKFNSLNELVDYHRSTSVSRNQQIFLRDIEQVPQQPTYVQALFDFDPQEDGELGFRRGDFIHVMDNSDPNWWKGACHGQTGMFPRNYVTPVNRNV

binding: binds
Substance: growth factor receptor bound protein 2 (from UniProt P62993 1-217)

From article doi:10.1101/2021.02.17.431525
